Measurements as given in patent publication US10563263B2, “Genetic polymorphisms associated with statin response and cardiovascular diseases, methods of detection and uses thereof” (CELERA CORPORATION, priority 2010, dated 2020).
The source gives many values for each of these; only a part stands here.

System: CVD (CHD or stroke)
Experiment: CARE: SNP by pravastatin treatment interaction, logistic regression (synergy index), CVD endpoint
Assay type: in vivo, human
Text: CARE was a secondary prevention trial and WOSCOPS was a primary prevention trial.
The CHD endpoint was defined in the analyses herein of CARE as a composite endpoint of fatal CHD, definite non-fatal MI, or revascularization, and was defined in the analyses herein of WOSCOPS as a composite endpoint of death from CHD, nonfatal MI, or revascularization. In both the CARE and WOSCOPS analyses herein, the CVD endpoint was defined as a composite endpoint of CHD or stroke. […] Revascularization, which can include percutaneous transluminal coronary angioplasty (PTCA), stent placement, and coronary artery bypass graft (CABG), are medical interventions that indicate the presence of CHD.
Cohort and case-only study designs were used to identify SNPs associated with response to statin treatment.
For each SNP, a logistic regression model having treatment status as the dependent variable and SNP as the independent predictor variable was performed, with terms for age, sex and race included in the model as covariates. The anti-log of the regression coefficient corresponding to the SNP is an estimate of the synergy index (SI) (Davis et al., “Imputing gene-treatment interactions when the genotype distribution is unknown using case-only and putative placebo analyses-a new method for the Genetics of Hypertension Associated Treatment (GenHAT) study”, Statistics in Medicine 23: (2004), pages 2413-2427). The SI is a ratio of odds ratios: for example in the CARE and WOSCOPS studies, the SI represents the factor by which the odds-ratio of statin treatment, compared with placebo, among major homozygous individuals is multiplied by in order to obtain the odds-ratio of treatment vs. placebo among heterozygous individuals; and multiplied by a second time to obtain the odds-ratio of treatment vs. placebo in minor homozygous individuals. […] In a randomized clinical trial, genotype and treatment are independent by design.

CC[C@H](C)C(=O)O[C@H]1C[C@H](O)C=C2C=C[C@H](C)[C@H](CC[C@@H](O)C[C@@H](O)CC(=O)O)[C@H]21 [Pravastatin, pravastatin]
OR (rs1868616 allele G, ADD model, Imputed): 0.572 | OR (rs1874313 allele A, DOM model, Imputed): 0.578 | OR (rs1884902 allele C, REC model, Imputed): 2.217 | OR (rs1913201 allele G, ADD model, Imputed): 0.692 | OR (rs1913201 allele G, DOM model, Imputed): 0.589 | OR (rs1944279 allele A, ADD model, Imputed): 1.579 | OR (rs1987179 allele T, DOM model, Imputed): 0.701 | OR (rs1990023 allele T, DOM model, Imputed): 0.548 | OR (rs2016194 allele G, DOM model, Imputed): 0.56 | OR (rs2024789 allele C, ADD model, Imputed): 0.675 | OR (rs2024902 allele A, ADD model, Imputed): 2.07 | OR (rs2024902 allele A, DOM model, Imputed): 2.266 | OR (rs2025107 allele A, ADD model, Imputed): 2.008 | OR (rs2025107 allele A, DOM model, Imputed): 2.219 | OR (rs2025108 allele T, ADD model, Imputed): 2.008 | OR (rs2025108 allele T, DOM model, Imputed): 2.219 | OR (rs2062448 allele T, ADD model, Imputed): 0.545 | OR (rs2062448 allele T, DOM model, Imputed): 0.517 | OR (rs2063591 allele C, ADD model, Imputed): 0.73 | OR (rs2063591 allele C, DOM model, Imputed): 0.56 | OR (rs2065604 allele C, DOM model, Imputed): 0.529 | OR (rs2066238 allele T, DOM model, Imputed): 0.521 | OR (rs2068051 allele G, ADD model, Imputed): 0.612 | OR (rs2095586 allele A, DOM model, Imputed): 1.786 | OR (rs2108426 allele C, DOM model, Imputed): 0.56 | OR (rs2110664 allele A, DOM model, Imputed): 1.503 | OR (rs2132242 allele A, DOM model, Imputed): 0.585 | OR (rs2151644 allele T, DOM model, Imputed): 0.527 | OR (rs2158958 allele A, DOM model, Imputed): 0.56 | OR (rs2158961 allele G, DOM model, Imputed): 0.564 | OR (rs2164099 allele G, ADD model, Imputed): 1.561 | OR (rs2173254 allele G, REC model, Imputed): 0.382 | OR (rs2188079 allele C, ADD model, Imputed): 1.482 | OR (rs2190304 allele G, REC model, Imputed): 0.439 | OR (rs2190597 allele T, DOM model, Imputed): 0.559 | OR (rs2190598 allele T, DOM model, Imputed): 0.56 | OR (rs2190600 allele A, DOM model, Imputed): 0.561 | OR (rs2218084 allele T, REC model, Imputed): 3.657 | OR (rs2243860 allele A, REC model, Imputed): 2.168 | OR (rs2246564 allele T, DOM model, Imputed): 0.529 | OR (rs2248236 allele C, DOM model, Imputed): 0.718 | OR (rs2250340 allele T, DOM model, Imputed): 0.514 | OR (rs2257192 allele G, DOM model, Imputed): 0.529 | OR (rs2270584 allele A, DOM model, Imputed): 0.567 | OR (rs2270586 allele A, DOM model, Imputed): 0.564 | OR (rs2270589 allele A, ADD model, Imputed): 0.711 | OR (rs2270589 allele A, DOM model, Imputed): 0.552 | OR (rs2296889 allele C, DOM model, Imputed): 1.638 | OR (rs2301346 allele C, ADD model, Imputed): 1.573 | OR (rs2301346 allele C, DOM model, Imputed): 1.763 | OR (rs2327929 allele G, REC model, Imputed): 2.122 | OR (rs2357486 allele C, REC model, Imputed): 2.717 | OR (rs2373793 allele G, DOM model, Imputed): 1.534 | OR (rs2377622 allele T, REC model, Imputed): 0.437 | OR (rs2383903 allele G, DOM model, Imputed): 0.614 | OR (rs2389866 allele C, DOM model, Imputed): 0.697 | OR (rs2389869 allele C, DOM model, Imputed): 0.697 | OR (rs2418541 allele A, DOM model, Imputed): 0.551 | OR (rs2418542 allele A, DOM model, Imputed): 0.551 | OR (rs2418548 allele C, DOM model, Imputed): 0.572 | OR (rs2476976 allele C, DOM model, Imputed): 1.728 | OR (rs2483639 allele A, DOM model, Imputed): 0.529 | OR (rs2483640 allele A, DOM model, Imputed): 0.529 | OR (rs2544780 allele T, REC model, Imputed): 1.881 | OR (rs2586458 allele T, DOM model, Imputed): 0.507 | OR (rs2593272 allele G, ADD model, Imputed): 0.712 | OR (rs2593273 allele T, ADD model, Imputed): 0.699 | OR (rs2622499 allele G, DOM model, Imputed): 0.726 | OR (rs2656822 allele T, ADD model, Imputed): 0.712 | OR (rs2656823 allele G, ADD model, Imputed): 0.712 | OR (rs2656825 allele T, ADD model, Imputed): 0.702 | OR (rs2764766 allele C, REC model, Imputed): 1.803 | OR (rs2793101 allele T, ADD model, Imputed): 0.506 | OR (rs2793101 allele T, DOM model, Imputed): 0.501 | OR (rs2795871 allele A, ADD model, Imputed): 0.578 | OR (rs2795886 allele A, ADD model, Imputed): 0.507 | OR (rs2795886 allele A, DOM model, Imputed): 0.517 | OR (rs2870464 allele G, DOM model, Imputed): 1.534 | OR (rs2875528 allele T, DOM model, Imputed): 1.705 | OR (rs4324417 allele A1=T, model DOM, Imputed, pravastatin vs placebo): 1.724 | OR (rs4328619 allele A1=G, model DOM, Genotyped, pravastatin vs placebo): 0.6851 | OR (rs4338909 allele A1=T, model ADD, Imputed, pravastatin vs placebo): 1.366 | OR (rs4370878 allele A1=G, model DOM, Imputed, pravastatin vs placebo): 1.625 | OR (rs4379434 allele A1=T, model DOM, Genotyped, pravastatin vs placebo): 1.624 | OR (rs4416407 allele A1=T, model DOM, Imputed, pravastatin vs placebo): 1.831 | OR (rs4417899 allele A1=C, model REC, Imputed, pravastatin vs placebo): 0.544 | OR (rs4442732 allele A1=A, model ADD, Imputed, pravastatin vs placebo): 0.6071 | OR (rs4444612 allele A1=G, model ADD, Imputed, pravastatin vs placebo): 1.36 | OR (rs4444612 allele A1=G, model REC, Imputed, pravastatin vs placebo): 1.891 | OR (rs4450660 allele A1=C, model DOM, Imputed, pravastatin vs placebo): 1.503 | OR (rs4509702 allele A1=C, model DOM, Imputed, pravastatin vs placebo): 1.625 | OR (rs4533145 allele A1=T, model DOM, Imputed, pravastatin vs placebo): 0.4949 | OR (rs4557006 allele A1=A, model DOM, Imputed, pravastatin vs placebo): 0.6286 | OR (rs4570530 allele A1=C, model DOM, Imputed, pravastatin vs placebo): 1.625 | OR (rs4615971 allele A1=C, model DOM, Imputed, pravastatin vs placebo): 1.614 | OR (rs4628119 allele A1=A, model DOM, Imputed, pravastatin vs placebo): 0.6745 | OR (rs4664443 allele A1=G, model ADD, Imputed, pravastatin vs placebo): 0.7174 | OR (rs4688259 allele A1=T, model DOM, Imputed, pravastatin vs placebo): 1.832 | OR (rs4688632 allele A1=G, model REC, Imputed, pravastatin vs placebo): 0.5583 | OR (rs4695284 allele A1=A, model ADD, Imputed, pravastatin vs placebo): 2.105 | OR (rs4700302 allele A1=A, model ADD, Imputed, pravastatin vs placebo): 0.5167 | OR (rs4702720 allele A1=A, model ADD, Imputed, pravastatin vs placebo): 0.6094 | OR (rs4702720 allele A1=A, model DOM, Imputed, pravastatin vs placebo): 0.5402
